Reference: PubChem BioAssay AID248 (DTP/NCI, 2004)
The list shows only some results of the screen, not a fair sample: it gathers tests that were run many times, whatever their T/C, doses with no T/C, and many T/C values between a quarter and a half above the control. Further doses and runs are listed elsewhere. T/C: endpoint of the treated group in % of that of the vehicle group. Some doses have a count of surviving animals in place of a T/C: the source files T/C as zero there, which appears to mark a toxic dose or a test without result, not a measured value. Some doses without a T/C left all or most animals alive at the check, yet need not have been tolerated: survival well below the control is almost never listed, so the zero probably covers shortened survival too. Survivors were counted at the toxicity check, usually on the fifth day, unless a day is given; later deaths do not show. Schedules are NCI's codes, taken here to give the interval after Q, in days (D) or hours (H), and the number of doses after X. Some entries were tested several times; their values stand side by side, smallest first. Some schedules carry Z or #; the key to these is not given. Where survival is the endpoint, the PubChem record calls one and a half times the control and up active, and a quarter to a half above the control has no call in these data; cut-offs in other NCI protocols can differ. Some T/C values are followed by the survivors on the day toxicity was checked, most often the fifth; without a count, all were alive then.

Test system: L1210 leukemia ip in BDF1 mice, survival T/C
Experiment: NCI In Vivo Anticancer Drug Screen. Data for tumor model L1210 Leukemia (intraperitoneal) in B6D2F1 (BDF1) mice
Conditions: T/C endpoint: mean survival time, higher T/C = longer survival
[1] = dose: 200.0 mg/kg/injection, schedule: Q01DX001 (ip), vehicle: carboxymethylcellulose (CMC)
[2] = dose: 200.0 mg/kg/injection, schedule: Q01DX009 (ip), vehicle: saline with Tween-80
[3] = dose: 100.0 mg/kg/injection, schedule: Q04DX002 (ip), vehicle: saline
[4] = dose: 400.0 mg/kg/injection, schedule: Q01DX009 (ip), vehicle: saline with Tween-80
[5] = dose: 200.0 mg/kg/injection, schedule: Q04DX003 (ip), vehicle: Klucel (hydroxypropylcellulose) (HPC)
[6] = dose: 400.0 mg/kg/injection, schedule: Q04DX003 (ip), vehicle: Klucel (hydroxypropylcellulose) (HPC)
[7] = dose: 400.0 mg/kg/injection, schedule: Q04DX002 (ip), vehicle: saline
[8] = dose: 100.0 mg/kg/injection, schedule: Q01DX009 (ip), vehicle: Klucel (hydroxypropylcellulose) (HPC)
[9] = dose: 200.0 mg/kg/injection, schedule: Q01DX009 (ip), vehicle: Klucel (hydroxypropylcellulose) (HPC)
[10] = dose: 400.0 mg/kg/injection, schedule: Q01DX009 (ip), vehicle: Klucel (hydroxypropylcellulose) (HPC)
[11] = dose: 300.0 mg/kg/injection, schedule: Q01DX001 (ip), vehicle: saline

Compound: O=S(=O)(Nc1ccccc1)c1ccc(C2CC3(Cl)C(Cl)=C(Cl)C2(Cl)C3(Cl)Cl)cc1 (centres undefined)
- T/C (dose: 133.0 mg/kg/injection, schedule: Q01DX001 (ip), vehicle: carboxymethylcellulose (CMC)): 127 % of control
- T/C [1]: 129 % of control
- survivor count (dose: 200.0 mg/kg/injection, schedule: Q01DX009 (ip), vehicle: saline sonified): 6 of 6

Compound: O=c1[nH]ncc(Cl)c1Cl
- survivor count (dose: 50.0 mg/kg/injection, schedule: Q01DX009 (ip), vehicle: saline with Tween-80): 3 of 3

Compound: O=C(NCCBr)Nc1ccc([N+](=O)[O-])cc1
- survivor count [2]: 3 of 3

Compound: ClCCN(CCCl)c1ccc(Nc2nc(Nc3ccc(N(CCCl)CCCl)cc3)c3ccccc3n2)cc1
- T/C [3]: 138 % of control

Compound: Cc1ccc(S(=O)(=O)NC(CSCc2ccccc2)C(=O)O)cc1 (centres undefined)
- survivor count [4]: 4 of 6

Compound: CS(=O)(=O)OCCN(CCOS(C)(=O)=O)c1ccc(C=Nc2ccc3oc(=O)ccc3c2)cc1
- T/C (dose: 3.0 mg/kg/injection, schedule: Q01DX015 (ip), vehicle: carboxymethylcellulose (CMC)): 130 % of control
- T/C (dose: 6.0 mg/kg/injection, schedule: Q01DX015 (ip), vehicle: carboxymethylcellulose (CMC)): 140 % of control
- T/C (dose: 12.0 mg/kg/injection, schedule: Q01DX015 (ip), vehicle: carboxymethylcellulose (CMC)): 136 % of control
- T/C (dose: 24.0 mg/kg/injection, schedule: Q01DX015 (ip), vehicle: carboxymethylcellulose (CMC)): 148 % of control

Compound: Nc1ncnc2nc(N=Nc3ccc(S(=O)(=O)N(CCCl)CCCl)cc3)[nH]c12
- survivor count [5]: 6 of 6
- survivor count [6]: 6 of 6

Compound: C=C1C(=O)OC2CC(C)C3CC(O)OC(O)C3(C)CC12 (centres undefined)
- survivor count (dose: 100.0 mg/kg/injection, schedule: Q01DX009 (ip), vehicle: saline with Tween-80): 0 of 6
- survivor count [2]: 0 of 6
- survivor count [4]: 0 of 6

Compound: CNCCCNCC1C(c2ccccc2)C1c1ccccc1 (centres undefined)
- survivor count [3]: 1 of 3
- survivor count (dose: 200.0 mg/kg/injection, schedule: Q04DX002 (ip), vehicle: saline): 0 of 3
- survivor count [7]: 0 of 3

Compound: COC(=O)/C(=C1\C=C(c2ccccc2)C(=O)O1)c1ccccc1
- survivor count [8]: 0 of 3 and 2 of 6
- survivor count [9]: 0 of 6
- survivor count [10]: 0 of 6

Compound: OCCCN=Cc1ccccc1O.OCCCN=Cc1ccccc1O.[Cu]
- survivor count (dose: 150.0 mg/kg/injection, schedule: Q01DX001 (ip), vehicle: other): 0 of 6
- survivor count (dose: 300.0 mg/kg/injection, schedule: Q01DX001 (ip), vehicle: other): 0 of 6

Compound: CN1CC2(Cc3ccccc3)c3ccccc3NC2(NC(=O)CCl)C1=O (centres undefined)
- survivor count (dose: 12.5 mg/kg/injection, schedule: Q04DX002 (ip), vehicle: saline with Tween-80): 3 of 3
- survivor count (dose: 25.0 mg/kg/injection, schedule: Q04DX002 (ip), vehicle: saline with Tween-80): 3 of 3
- survivor count (dose: 50.0 mg/kg/injection, schedule: Q04DX002 (ip), vehicle: saline with Tween-80): 3 of 3

Compound: O=P(NO)(Oc1ccccc1)Oc1ccccc1
- survivor count (dose: 400.0 mg/kg/injection, schedule: Q01DX001 (ip), vehicle: carboxymethylcellulose (CMC)): 2 of 4

Compound: CN=C(NC1CCCCC1)c1ccc(NC(=O)c2ccc(C(=O)Nc3ccc(C(=NC)NC4CCCCC4)cc3)cc2)cc1
- survivor count (dose: 15.0 mg/kg/injection, schedule: Q01DX Z (ip), vehicle: saline): 1 of 6
- survivor count (dose: 30.0 mg/kg/injection, schedule: Q01DX Z (ip), vehicle: saline): 0 of 6
- survivor count (dose: 60.0 mg/kg/injection, schedule: Q01DX Z (ip), vehicle: saline): 0 of 6
- survivor count (dose: 120.0 mg/kg/injection, schedule: Q01DX Z (ip), vehicle: saline): 0 of 6

Compound: Clc1ccc(Cl)c(-c2csc(-c3ccncc3)n2)c1
- survivor count [9]: 1 of 6
- survivor count [10]: 0 of 6

Compound: O=C1Oc2ccccc2C(=O)Oc2ccccc2C(=O)Oc2ccccc2C(=O)Oc2ccccc21
- survivor count (dose: 150.0 mg/kg/injection, schedule: Q01DX001 (ip), vehicle: saline): 6 of 6
- survivor count [11]: 6 of 6

Compound: CCN(CC)CCCC(C)Nc1ncnc2ncc3c(c12)CCCC3 (centres undefined)
- survivor count [7]: 0 of 3

Compound: CNC(=O)C(=O)NCCCN1CC1
- survivor count (dose: 50.0 mg/kg/injection, schedule: Q04DX003 (ip), vehicle: Klucel (hydroxypropylcellulose) (HPC)): 4 of 6
- survivor count (dose: 100.0 mg/kg/injection, schedule: Q04DX003 (ip), vehicle: Klucel (hydroxypropylcellulose) (HPC)): 3 of 6
- survivor count [5]: 0 of 6
- survivor count [6]: 0 of 6

Compound: CCC(C)C(CCN1CCCCC1)(CNC(=O)CN(CC)CC)Cc1cccc2ccccc12 (centres undefined)
- survivor count (dose: 100.0 mg/kg/injection, schedule: Q01DX009 (ip), vehicle: saline): 1 of 6
- survivor count (dose: 200.0 mg/kg/injection, schedule: Q01DX009 (ip), vehicle: saline): 0 of 6
- survivor count (dose: 400.0 mg/kg/injection, schedule: Q01DX009 (ip), vehicle: saline): 0 of 6

Compound: CN(C)C1CCC(/C=C(\C#N)C2CCC([N+](=O)[O-])CC2)CC1 (centres undefined)
- T/C (dose: 100.0 mg/kg/injection, schedule: Q04DX002 (ip), vehicle: Klucel (hydroxypropylcellulose) (HPC)): 126 % of control

Compound: CCNC(=S)Nc1cccc(C)c1
- T/C (dose: 100.0 mg/kg/injection, schedule: Q04DX002 (ip), vehicle: gum acacia): 129 % of control
- T/C (dose: 200.0 mg/kg/injection, schedule: Q04DX002 (ip), vehicle: gum acacia): 126 % of control [2 of 3 alive]
- survivor count (dose: 400.0 mg/kg/injection, schedule: Q04DX002 (ip), vehicle: gum acacia): 0 of 3

Compound: CCCCc1ccccn1
- survivor count (dose: 200.0 mg/kg/injection, schedule: Q01DX001 (ip), vehicle: saline): 0 of 4
- survivor count (dose: 400.0 mg/kg/injection, schedule: Q01DX001 (ip), vehicle: saline): 0 of 4

Compound: Cc1cccc(OCCOC(=O)Nc2ccc(C)cc2[N+](=O)[O-])c1
- survivor count [2]: 3 of 3

Compound: COP(=S)(OC)N(C)C
- survivor count [11]: 1 of 6

Compound: CCOC(=O)C(CCN1CCCCC1)c1cccc2ccccc12 (centres undefined)
- survivor count [6]: 0 of 6

Compound: O=C(O)c1ccc(N=Cc2ccccc2O)cc1.[Co]
- survivor count (dose: 400.0 mg/kg/injection, schedule: Q01DX001 (ip), vehicle: other): 0 of 6

Compound: CSC1=NCCS1
- survivor count (dose: 400.0 mg/kg/injection, schedule: Q01DX009 (ip), vehicle: carboxymethylcellulose (CMC)): 0 of 6

Compound: CN(N=O)C(=O)NCc1c[nH]c(=O)[nH]c1=O
- T/C (dose: 75.0 mg/kg/injection, schedule: Q01DX Z (ip), vehicle: carboxymethylcellulose (CMC)): 133 % of control
- survivor count (dose: 100.0 mg/kg/injection, schedule: Q01DX Z (ip), vehicle: carboxymethylcellulose (CMC)): 2 of 6
- survivor count (dose: 150.0 mg/kg/injection, schedule: Q01DX Z (ip), vehicle: carboxymethylcellulose (CMC)): 1 of 6

Compound: C1=C(c2ccccc2)S/C(=C/c2ccccc2)S1
- survivor count (dose: 100.0 mg/kg/injection, schedule: Q01DX001 (ip), vehicle: carboxymethylcellulose (CMC)): 6 of 6
- survivor count [1]: 6 of 6
- survivor count (dose: 200.0 mg/kg/injection, schedule: Q04DX003 (ip), vehicle: saline): 6 of 6

Compound: COc1ccc(/C(C#N)=C2C=C(Cl)/C(=N/O)C=C/2Cl)cc1
- survivor count [4]: 0 of 6

Compound: O=[N+]([O-])c1cccc(/C=N/NC(=S)Nc2ccccc2)c1
- survivor count [10]: 3 of 6

Compound: O=C(NCCCl)NNC(=O)c1ccccc1
- survivor count [6]: 3 of 6

Compound: O=[N+]([O-])CC1(O)CCCCC1
- survivor count [8]: 0 of 6

Compound: Oc1ccc2ccnc(Cc3ccc(Br)cc3)c2c1
- survivor count (dose: 100.0 mg/kg/injection, schedule: Q01DX001 (ip), vehicle: Klucel (hydroxypropylcellulose) (HPC)): 6 of 6

Compound: O=[N+]([O-])c1ccc(C[n+]2ccc3ccccc3c2)cc1
- survivor count (dose: 100.0 mg/kg/injection, schedule: Q04DX003 (ip), vehicle: acetone): 4 of 6
- survivor count (dose: 200.0 mg/kg/injection, schedule: Q04DX003 (ip), vehicle: acetone): 0 of 6
- survivor count (dose: 400.0 mg/kg/injection, schedule: Q04DX003 (ip), vehicle: acetone): 0 of 6
